Data published in publication PMC5404329.
Results are given in words; binding and its absence hold for the method and conditions named. Binding seen in cells or lysates may run through a third protein. A result given as binding can be weak or reduced; the word gives no strength. Values belong to the molecule of their own block, whether it stands above or below them.

Chains of the proteins cited; added tags and fusions are not shown. Lines headed by an entry give the natural chain unless they say otherwise; changes in a name come on top.
UniProt P09038: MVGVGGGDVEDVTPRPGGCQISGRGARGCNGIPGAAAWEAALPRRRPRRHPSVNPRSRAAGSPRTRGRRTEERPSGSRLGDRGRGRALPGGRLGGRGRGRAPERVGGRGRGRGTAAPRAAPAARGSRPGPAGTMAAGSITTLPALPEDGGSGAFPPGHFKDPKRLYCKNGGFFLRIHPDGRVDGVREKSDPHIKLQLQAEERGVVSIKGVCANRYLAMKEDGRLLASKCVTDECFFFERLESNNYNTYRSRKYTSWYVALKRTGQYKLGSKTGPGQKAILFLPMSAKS

Experiments:
[1] = target: T1, Glypican-2 (human (endogenous in hESC-derived neural progenitor cells)) (UniProt Q8N158); test: co-IP; immunoprecipitation with the Gpc2-specific antibody (clone 2/43) from NPC lysates pre-incubated with 0, 1, 2.5, 5 and 10 ug/ml free Gpc2 antibody; FGF2 detected by blot in the eluted fractions
T1 sequence: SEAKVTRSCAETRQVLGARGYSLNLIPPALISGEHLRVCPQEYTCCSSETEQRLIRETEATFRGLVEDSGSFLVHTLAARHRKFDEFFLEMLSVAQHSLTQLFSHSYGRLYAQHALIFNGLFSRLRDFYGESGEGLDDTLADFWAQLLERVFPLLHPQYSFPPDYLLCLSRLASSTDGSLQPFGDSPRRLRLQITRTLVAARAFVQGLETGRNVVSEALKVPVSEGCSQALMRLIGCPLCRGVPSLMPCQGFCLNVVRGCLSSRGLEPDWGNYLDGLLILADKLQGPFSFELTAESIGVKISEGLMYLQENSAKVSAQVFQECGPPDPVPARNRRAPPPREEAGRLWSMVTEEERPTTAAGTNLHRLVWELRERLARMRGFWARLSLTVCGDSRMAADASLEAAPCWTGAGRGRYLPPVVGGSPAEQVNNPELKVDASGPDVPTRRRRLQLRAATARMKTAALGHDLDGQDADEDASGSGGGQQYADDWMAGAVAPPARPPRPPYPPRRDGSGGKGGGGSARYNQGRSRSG

[2] = target: Fibroblast Growth Factor 2 (human (endogenous in hESC-derived neural progenitor cells)) (UniProt P09038); test: co-IP; reverse immunoprecipitation with an FGF2-specific antibody (Abcam ab126861) from NPC lysate; Gpc2 detected by blot in the bound fraction

binding [1]: binds
Molecule: Fibroblast Growth Factor 2 (from UniProt P09038) (ligand)

binding [2]: binds
B1: Glypican-2 (protein, UniProt Q8N158 24-554)
chain: T1 sequence
